Experimental data: PubChem BioAssay AID1688 (National Center for Advancing Translational Sciences (NCATS), 2009)
Among all 220,000 compounds or so, about 2,400 (1.1%) were called active. The inconclusive results got no clear call from the source; some entries with a clear call stand among them for comparison. The call rests on the fitted dose curve; in most records, active means well fitted inhibition curve with a large enough effect; inconclusive means small, poorly fitted or top-dose-only effect, or effect the other way; inactive means no such curve, though single readings can be large or run the other way. Where the call is inconclusive, the potency comes from a doubtful curve fit.

test: qHTS Multiplex Assay to Identify Dual Action Probes in a Cell Model of Huntington: Aggregate Formation (GFP); settings: PC12 HttQ103-GFP aggregates, Acumen cytometry, 40 h; activity change, negative = inhibition: at 46.1 µM (top of the series) unless noted; further: nearly all actives have a fitted effect of over 60% in size
Procedure, shortened: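 PC12 cells stably carrying ecdysone-inducible HTT exon 1 Q103–GFP were induced with tebufenozide (100 nM final) and treated with library compounds in titration. GFP aggregates in lysates were counted by laser scanning cytometry.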
On the % scale 0 is the no-effect control and ±100 the full control effect; potency means the concentration at half of the fitted maximal effect.

| Compound | Potency | activity change, negative = inhibition |
| --- | --- | --- |
| Cc1ccc(NC(=S)NC(NC(=O)Cc2cccc3ccccc23)C(Cl)(Cl)Cl)cc1 (stereo not drawn) | inconclusive: 10 µM [inhibitor, single point] | – |
| CC(c1cccs1)N(Cc1ccco1)C(=O)Nc1ccc(Cl)c(Cl)c1 (stereo not drawn) | inconclusive: 35.5 µM [inhibitor, single point] | – |
| Cc1cc(NC(=O)CN(C)C)c([N+](=O)[O-])cc1C | inactive | – |
| Cc1ccc(C)c(S(=O)(=O)NCc2ccc(C(=O)N3CCC(Cc4ccccc4)CC3)cc2)c1 | inconclusive: 17.8 µM [inhibitor, single point] | – |
| Cc1ccc(C)c(NC(=O)c2cnn3ccccc23)c1 | active: 12.6 µM | – |
| COC(=O)C1(CCSC)NC(c2ccco2)C2C(=O)N(C)C(=O)C21 (stereo not drawn) | inconclusive: 5.62 µM [inhibitor, single point] | – |
| COC(=O)c1c(NS(=O)(=O)c2ccc(C)cc2)sc2c1CCC(C)C2 (stereo not drawn) | inconclusive: 11.2 µM [inhibitor, partial curve, poor fit] | – |
| CCN(CC)S(=O)(=O)c1ccc(N2CCOCC2)c(NC(=O)c2ccc(C#N)cc2)c1 | inactive | – |
| COc1cc(C2c3cc4c(cc3C(OC3OC5COC(c6cccs6)OC5C(O)C3O)C3COC(=O)C23)OCO4)cc(OC)c1O (stereo not drawn) | – | inactive: -9.5% [at 9.22 µM] |
| O=C(O)Cc1cc(C(=O)Nc2ccc(Br)cc2)sc1-c1ccccc1 | inconclusive: 35.5 µM [inhibitor, single point] | – |
| CC(C)N1CCc2c(sc(NC(=O)c3cc(-c4cccs4)nc4ccccc34)c2C(N)=O)C1 | inconclusive: 10 µM [inhibitor, partial curve] | – |
| COC(=O)C1=C(C)N(c2ccccc2)C(=S)NC1c1ccccc1C(F)(F)F (stereo not drawn) | inconclusive: 22.4 µM [inhibitor, partial curve] | – |
| O=C(Oc1c(CN2CCOCC2)cc(Cl)c2cccnc12)c1ccccc1F | inconclusive: 6.31 µM [inhibitor, full curve] | – |
| O=c1c(C/C=C/c2ccccc2)c(O)ccn1Cc1cccc(Cl)c1 | inconclusive: 15.8 µM [inhibitor, single point] | – |
| CC(C)CNC(=O)c1cc(-c2ccco2)on1 | inconclusive: 3.16 µM [inhibitor, single point] | – |
| Cc1onc(-c2ccccc2Cl)c1C(=O)Nc1ccc(-c2cn3cccnc3n2)cc1 | inactive | – |
| Cc1ccc(S(=O)(=O)Nc2ccc(N=Nc3ccc(O)cc3)cc2)cc1 | inconclusive: 35.5 µM [inhibitor, single point] | – |
| O=C(Nc1cccc(S(=O)(=O)N2CCCCC2)c1)Nc1ccc(Cl)cc1Cl | active: 14.1 µM | – |
| O=S1(=O)C=C(SCc2ccc(F)cc2)Nc2ccccc21 | inconclusive: 35.5 µM [inhibitor, single point] | – |
| Nc1ccc2ncccc2c1 | inconclusive: 35.5 µM [inhibitor, single point] | – |
| Cc1cccc(N=Cc2[nH]c3ccc(Br)c(Cl)c3c2O)c1 | inactive | – |
| O=S(=O)(NC1CCCC1)c1cccc(-c2nnc(-c3ccccc3)o2)c1 | inconclusive: 35.5 µM [inhibitor, single point] | – |
| CN(C)c1ccnc(-n2cccc2/C=N/OCc2cccc(F)c2)c1C#N | inconclusive: 4.47 µM [activator, single point] | – |

| Compound | Potency | activity change, negative = inhibition |
| --- | --- | --- |
| COc1cccc(C2=NOC(C(=O)Nc3ccc(OC)c(OC)c3)C2)c1 (stereo not drawn) | inactive | – |
| Nc1c(C(=O)NCCN2CCOCC2)c2nc3ccccc3nc2n1CCc1ccccc1 | inconclusive: 35.5 µM [inhibitor, single point] | – |
| CCC(=O)Nc1ccc(/C(C)=N\NS(=O)(=O)c2ccc(C)cc2)cc1 | inconclusive: 20 µM [activator, single point] | – |
| CC1=NN(c2ccccc2)C(=O)C1C(=O)c1ccccc1 (stereo not drawn) | inconclusive: 35.5 µM [inhibitor, single point] | – |
| CCN(CC)Cc1c(O)ccc2occ(C(=O)c3ccc(OC)cc3)c12 | inactive | – |
| Cc1nc2sc(C(c3ccc(C(C)C)cc3)N3CCN(CCO)CC3)c(O)n2n1 (stereo not drawn) | inconclusive: 1 µM [activator, single point] | – |
| O=C(OCc1cc2ccccc2[nH]c1=O)C1CCCCC1 | inactive | – |
| CCOC(=O)C1(S(=O)(=O)c2ccccc2)CCN(Cc2ccc(Cl)cc2)CC1 | inconclusive: 15.8 µM [inhibitor, single point] | – |
| CCOC(=O)C(C)Sc1nc2c(c(=O)[nH]c(=O)n2C)n1CCc1ccccc1 (stereo not drawn) | inconclusive: 2.82 µM [activator, full curve, poor fit] | – |
| CCCC(=O)N(c1ccc(C(=O)O)cc1)c1nc(-c2ccccc2)c(C)s1 | inactive | – |
| Cc1cccc(C)c1-n1cccc1/C=C1\SC(=S)N(c2cccc(C(=O)O)c2)C1=O | inactive | – |
| COc1ccc(C(=O)/C(=C/O)N=Nc2ccc(F)cc2)cc1 | inconclusive: 22.4 µM [inhibitor, single point] | – |
| COc1ccc(N2CCN(S(=O)(=O)c3ccc4c(c3)CCCC4)CC2)c([N+](=O)[O-])c1 | inconclusive: 7.08 µM [inhibitor, full curve] | – |
| Cc1ccc(CSc2nc3ccccc3cc2C=O)cc1 | inconclusive: 35.5 µM [inhibitor, single point] | – |
| CCOC(=O)C1=C(C)N=c2s/c(=C\c3cc(OC)c(OC)c(OC)c3)c(=O)n2C1/C=C/c1ccccc1 (stereo not drawn) | inconclusive: 25.1 µM [activator, single point] | – |
| O=S(=O)(c1cccc(-c2nnc(-c3ccc(Br)cc3)o2)c1)N1CCCCCC1 | inactive | – |
| COc1cc(C)c(NC(=S)Nc2ccc(Cl)c(Cl)c2)cc1OC | inconclusive: 0.891 µM [inhibitor, single point] | – |
| O=C(COC(=O)c1ccccc1C(=O)c1ccc(Cl)c([N+](=O)[O-])c1)NC1CCCCCC1 | inconclusive: 35.5 µM [inhibitor, single point] | – |
| CN(C)N1C(=O)CC(NNC(=O)c2ccncc2)C1=O (stereo not drawn) | inconclusive: 1.26 µM [inhibitor, single point] | – |
| Cc1nnc2ccc(N3CCCC3)nn12 | inconclusive: 3.55 µM [inhibitor, partial curve] | – |
| NC(=O)Cc1ccc(Nc2nnc(-c3ccc(O)cc3)c3ccccc23)cc1 | inconclusive: 3.55 µM [inhibitor, single point] | – |
| Cc1cc2cc(CN(CCCO)S(=O)(=O)c3cccc4nsnc34)c(=O)[nH]c2cc1C | inactive | – |
| CC(C)NCC(O)COC1CCC(C(C)(C)C)CC1 (stereo not drawn) | inconclusive: 35.5 µM [inhibitor, single point] | – |

Some of the entries so far, with tabs:
Compound	Potency	activity change, negative = inhibition
CC1=NN(c2ccccc2)C(=O)C1C(=O)c1ccccc1 (stereo not drawn)	inconclusive: 35.5 µM [inhibitor, single point]	–
CCN(CC)Cc1c(O)ccc2occ(C(=O)c3ccc(OC)cc3)c12	inactive	–
Cc1nc2sc(C(c3ccc(C(C)C)cc3)N3CCN(CCO)CC3)c(O)n2n1 (stereo not drawn)	inconclusive: 1 µM [activator, single point]	–
O=C(OCc1cc2ccccc2[nH]c1=O)C1CCCCC1	inactive	–
CCOC(=O)C1(S(=O)(=O)c2ccccc2)CCN(Cc2ccc(Cl)cc2)CC1	inconclusive: 15.8 µM [inhibitor, single point]	–
CCOC(=O)C(C)Sc1nc2c(c(=O)[nH]c(=O)n2C)n1CCc1ccccc1 (stereo not drawn)	inconclusive: 2.82 µM [activator, full curve, poor fit]	–
CCCC(=O)N(c1ccc(C(=O)O)cc1)c1nc(-c2ccccc2)c(C)s1	inactive	–
Cc1cccc(C)c1-n1cccc1/C=C1\SC(=S)N(c2cccc(C(=O)O)c2)C1=O	inactive	–
COc1ccc(C(=O)/C(=C/O)N=Nc2ccc(F)cc2)cc1	inconclusive: 22.4 µM [inhibitor, single point]	–
COc1ccc(N2CCN(S(=O)(=O)c3ccc4c(c3)CCCC4)CC2)c([N+](=O)[O-])c1	inconclusive: 7.08 µM [inhibitor, full curve]	–
Cc1ccc(CSc2nc3ccccc3cc2C=O)cc1	inconclusive: 35.5 µM [inhibitor, single point]	–
CCOC(=O)C1=C(C)N=c2s/c(=C\c3cc(OC)c(OC)c(OC)c3)c(=O)n2C1/C=C/c1ccccc1 (stereo not drawn)	inconclusive: 25.1 µM [activator, single point]	–
O=S(=O)(c1cccc(-c2nnc(-c3ccc(Br)cc3)o2)c1)N1CCCCCC1	inactive	–

Further structures.

| Compound | Potency | activity change, negative = inhibition |
| --- | --- | --- |
| CCOC(=O)C(=Cc1ccc(-n2cncn2)cc1)C(=O)OCC | inconclusive: 31.6 µM [activator, single point] | – |
| Cc1cnc(C(=O)Nc2ccc(C(C)C)cc2)cn1 | inactive | – |
| CCNc1nc(NCC)nc(SCC(C)=O)n1 | inconclusive: 35.5 µM [activator, single point] | – |
| Cc1ccc(N2CCN(C(=S)c3ccc(N(C)C)cc3)CC2)cc1 | inconclusive: 22.4 µM [inhibitor, partial curve] | – |
| O=C(NC(C(=O)c1ccccc1)N1CCCCC1)c1ccccc1 (stereo not drawn) | inconclusive: 1 µM [inhibitor, single point] | – |
| O=C(Oc1ccc(OC(=O)C2CCC2)cc1)C1CCC1 | inconclusive: 35.5 µM [inhibitor, single point] | – |
| CCN1CCN(S(=O)(=O)c2ccc3c(c2)OCCO3)CC1 | inconclusive: 6.31 µM [inhibitor, single point] | – |
| COc1ccc(/C(C)=N/OCC(=O)Nc2nc3ccccc3s2)cc1OC | inconclusive: 8.91 µM [inhibitor, partial curve] | – |
| COc1ccccc1C1=NNC(=Nc2cccc(S(=O)(=O)N(C)C)c2)SC1 | active: 11.2 µM | – |
| Cc1ccc2nc(C)cc(C(=O)OCC(=O)c3ccc(Cl)c([N+](=O)[O-])c3)c2c1 | inconclusive: 35.5 µM [inhibitor, single point] | – |
| CCOC(=O)c1ccc(NC(=O)CSc2nnc(CNc3ccc(OC)cc3)n2C)cc1 | inactive | – |
| Cc1nc(SCC(=O)c2cc3ccccc3oc2=O)c(C#N)c(-c2ccccc2)c1C(=O)Nc1ccccc1 | inconclusive: 35.5 µM [inhibitor, single point] | – |
| Cc1nnc(NC(=O)c2cc3n(n2)C(C(F)(F)F)CC(C2CC2)N3)s1 (stereo not drawn) | inconclusive: 2.82 µM [activator, single point] | – |
| CSc1ccc(C(=O)C2CCCN(C(=O)c3ccc4c(c3)no[n+]4[O-])C2)cc1 (stereo not drawn) | – | inactive: -1.65% [at 9.22 µM] |
| COC(=O)[C@H](C)NC(=O)NCc1ccco1 | inactive | – |
| COc1ccccc1OCCCOc1c(C)cc(C)cc1Br | inactive | – |
| COc1cc(NC(=O)c2cc([N+](=O)[O-])ccc2Br)ccc1NC(=O)c1ccco1 | inconclusive: 11.2 µM [inhibitor, partial curve] | – |
| CCC(C)NS(=O)(=O)c1ccc(S(=O)(=O)N2CCCC3(CCCCC3)C2)cc1 (stereo not drawn) | inconclusive: 5.62 µM [inhibitor, full curve] | – |
| COC(=O)c1ccc(/C=C(\C#N)C(=O)NC(C)c2ccccc2)cc1 (stereo not drawn) | inconclusive: 35.5 µM [inhibitor, single point] | – |
| N=c1ccn(Cc2ccc(Cl)cc2Cl)cc1 | active: 7.08 µM | – |
| Cc1cnc(C(=O)OCC(=O)Nc2oc(-c3ccccc3)c(-c3ccccc3)c2C#N)cn1 | inconclusive: 11.2 µM [activator, partial curve] | – |
| COc1ccc(CCc2nnc(CCC(=O)N(C)Cc3ccnc4ccccc34)o2)cc1 | – | inactive: -18.6% [at 9.22 µM] |
